Measured values: patent US7807678B2, “Peptidomimetics of biologically active metallopeptides” (Palatin Technologies, Inc., priority 2001, dated 2010)
For at least one compound, name, drawing or mass did not settle the structure.

By UniProt entry, the sequences of proteins in these tests, tags left out. Where a name states a change or a piece, a line headed by the entry shows the natural chain unless it says otherwise.
UniProt P33032: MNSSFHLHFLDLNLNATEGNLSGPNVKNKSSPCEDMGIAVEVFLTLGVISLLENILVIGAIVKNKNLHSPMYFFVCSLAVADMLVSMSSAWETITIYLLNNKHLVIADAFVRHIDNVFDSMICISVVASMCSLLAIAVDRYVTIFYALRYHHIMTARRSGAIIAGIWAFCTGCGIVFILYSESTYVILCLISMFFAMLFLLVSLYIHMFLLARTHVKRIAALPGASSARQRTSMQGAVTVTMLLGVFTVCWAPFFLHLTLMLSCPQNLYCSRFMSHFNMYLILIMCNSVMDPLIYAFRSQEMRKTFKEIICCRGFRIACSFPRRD
UniProt P32245, whole entry: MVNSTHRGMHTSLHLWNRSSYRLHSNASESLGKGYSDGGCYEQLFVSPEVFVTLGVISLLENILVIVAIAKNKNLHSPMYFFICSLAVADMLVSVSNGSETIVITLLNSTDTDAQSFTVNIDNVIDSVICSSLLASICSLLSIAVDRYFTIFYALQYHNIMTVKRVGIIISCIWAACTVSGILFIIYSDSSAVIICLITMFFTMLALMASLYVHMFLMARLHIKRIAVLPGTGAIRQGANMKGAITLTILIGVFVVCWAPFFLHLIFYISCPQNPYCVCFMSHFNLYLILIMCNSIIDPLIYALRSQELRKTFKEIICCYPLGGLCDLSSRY
UniProt Q01727: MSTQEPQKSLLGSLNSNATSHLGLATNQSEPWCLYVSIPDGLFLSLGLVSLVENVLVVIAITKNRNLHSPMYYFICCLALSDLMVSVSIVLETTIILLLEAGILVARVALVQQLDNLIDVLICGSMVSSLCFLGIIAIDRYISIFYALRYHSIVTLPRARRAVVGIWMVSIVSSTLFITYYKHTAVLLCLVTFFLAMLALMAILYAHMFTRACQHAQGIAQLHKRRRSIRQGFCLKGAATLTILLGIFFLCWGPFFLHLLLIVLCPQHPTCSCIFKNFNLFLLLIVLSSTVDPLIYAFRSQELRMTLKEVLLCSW

Legend:
Assay type in all cases: cell-based
MC5-R (HEK-293 cells) = target: T1, MC5-R (HEK-293 cells) (Homo sapiens, UniProt P33032); experiment: cAMP assay for agonist/antagonist status, MC5-R
T1 construct: expressed in transfected cells; host or cells: HEK-293
Procedure: (§1) The Ki (nM) of certain peptidomimetics were determined, as was the agonist/antagonist status with respect to MC4-R, Functional evaluation of compounds at melanocortin receptors was performed by measuring the accumulation of intracellular cAMP in HEK-293 cells expressing MC3-R, MC4-R or MC5-R, and in B-16 mouse melanoma cells (containing MC1-R). Antagonistic activity was determined by measuring the inhibition of α-MSH-induced cAMP levels following exposure to the compounds. Cells, suspended in Earle's Balanced Salt Solution containing 10 mM HEPES, pH 7.5, 5 mM MgCl2, 1 mM glutamine, 0.1% albumin and 0.6 mM 3-isobutyl-1-methyl-xanthine, a phosphodiesterase inhibitor, were plated in 96 well plates at a density of 0.5×10^5 cells per well. Cells were incubated with the test compounds in the presence or absence of α-MSH for 1 hour at 37° C. cAMP levels were measured by EIA (Amersham) in the cell lysates. Data analysis and EC50 values were determined using nonlinear regression analysis with Prism Graph-Pad software.

MC4-R (HEK-293 cells) = target: T2, MC4-R (HEK-293 cells) (Homo sapiens, UniProt P32245); experiment: cAMP assay for agonist/antagonist status, MC4-R
T2 construct: expressed in transfected cells; host or cells: HEK-293
Procedure: as §1

[1] = target: T3, MC1-R (B-16 mouse melanoma cells) (Mus musculus, UniProt Q01727); experiment: cAMP assay for agonist/antagonist status, MC1-R
T3 construct: B-16 mouse melanoma cells (containing MC1-R); endogenous in cells; host or cells: B-16 mouse melanoma cells
Procedure: as §1

SMILES	agonist/antagonist status as to MC5-R (MC5-R (HEK-293 cells))	agonist/antagonist status as to MC4-R (MC4-R (HEK-293 cells))	agonist/antagonist status as to MC1-R [1]
NCCCC[C@H]1C(=O)N(CCc2ccc3ccccc3c2)CCN1C(=O)[C@@H](Cc1ccc(Cl)cc1Cl)NC(=O)[C@@H]1CC[C@H](c2ccccc2)N1 [Example 26]	agonist	agonist	agonist
N=C(N)NCCCC1C(=O)N2C(COc3ccc4ccccc4c3)CCC2N1C(=O)C(Cc1ccccc1Cl)NC(=O)C(N)COCc1ccccc1 (stereo not drawn) [Example 99]		agonist	agonist
CCCCCCC(=O)NC(COCc1ccccc1)C(=O)NC(Cc1ccc(Cl)cc1)C(=O)N1C(CCCCN)C(=O)N2C(COc3ccc4ccccc4c3)CCC21 (stereo not drawn) [Example 81]		antagonist	
N=C(N)NCCC[C@H]1C(=O)N2C(CC[C@@H]2COc2ccc3ccccc3c2)N1C(=O)[C@@H](Cc1ccc(Cl)cc1Cl)NC(=O)[C@@H]1CC[C@H](c2ccccc2)N1 (stereo partly drawn) [Example 115]	agonist	antagonist	agonist
NCCCCC1C(=O)N2C(COc3ccc4ccccc4c3)CCC2N1C(=O)C(Cc1ccc(Cl)cc1)NC(=O)C1Cc2ccccc2CN1 (stereo not drawn) [Example 80]		agonist	
NCCCC[C@H]1C(=O)N(CCc2ccc3ccccc3c2)CCN1C(=O)[C@@H](Cc1ccc(Cl)cc1Cl)NC(=O)/C=C/c1ccccc1 [Example 31]	agonist	antagonist	antagonist
NC(COCc1ccccc1)C(=O)NC(Cc1ccc(Cl)cc1Cl)C(=O)N1CCN(CCc2ccc3ccccc3c2)C(=O)C1CCCNC1=NCCN1 (stereo not drawn) [Example 48]	agonist	agonist	agonist
N=C(N)NCCCC1C(=O)N2C(COc3ccc4ccccc4c3)CCC2N1C(=O)C(Cc1ccccc1Cl)NC(=O)C1Cc2ccccc2CN1 (stereo not drawn) [Example 98]		agonist	agonist
